No constants are given. Whether binding was seen depends on the method and setting. Binding seen in cells or lysates may run through a third protein. Some entries that bind do so weakly or less than the wild type.
T1: tetraspanin protein CD9 on murine LL/2 cells (murine) (UniProt P40240)
T1 sequence (looked up): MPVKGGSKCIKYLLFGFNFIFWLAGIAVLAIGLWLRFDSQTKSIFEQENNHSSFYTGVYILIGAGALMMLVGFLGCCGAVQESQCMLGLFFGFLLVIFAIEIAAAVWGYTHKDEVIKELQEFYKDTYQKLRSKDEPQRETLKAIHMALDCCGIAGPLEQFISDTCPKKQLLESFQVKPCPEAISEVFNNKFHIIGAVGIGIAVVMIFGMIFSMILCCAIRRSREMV

The chains behind the UniProt entries cited, without tags or fusion partners. Residues count along the entry.
UniProt P21926, residues 2-228: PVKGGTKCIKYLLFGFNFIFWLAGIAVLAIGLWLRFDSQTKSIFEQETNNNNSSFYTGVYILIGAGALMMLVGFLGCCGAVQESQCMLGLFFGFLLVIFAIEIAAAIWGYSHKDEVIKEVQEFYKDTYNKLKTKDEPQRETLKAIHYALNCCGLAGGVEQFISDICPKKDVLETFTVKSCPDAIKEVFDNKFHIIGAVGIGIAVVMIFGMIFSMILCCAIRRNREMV


What was measured:
[1] = target: tetraspanin protein CD9 on human SCC cells (human) (UniProt P21926); test: cross-linking (DSP or DTSSP) and co-immunoprecipitation from surface-labeled SCC cells
[2] = target: T1, tetraspanin protein CD9 on murine LL/2 cells (murine); test: cross-linking (DSP or DTSSP) and co-immunoprecipitation from surface-labeled LL/2 cells

binding [1] | binding [2] | Binder
binds |  | colligin/CBP2/Hsp47 on the surface of human carcinoma cells (protein, UniProt P50454 19-418, looked up) AEVKKPAAAAAPGTAEKLSPKAATLAERSAGLAFSLYQAMAKDQAVENILVSPVVVASSLGLVSLGGKATTASQAKAVLSAEQLRDEEVHAGLGELLRSLSNSTARNVTWKLGSRLYGPSSVSFADDFVRSSKQHYNCEHSKINFRDKRSALQSINEWAAQTTDGKLPEVTKDVERTDGALLVNAMFFKPHWDEKFHHKMVDNRGFMVTRSYTVGVMMMHRTGLYNYYDDEKEKLQIVEMPLAHKLSSLIILMPHHVEPLERLEKLLTKEQLKIWMGKMQKKAVAISLPKGVVEVTHDLQKHLAGLGLTEAIDKNKADLSRMSGKKDLYLASVFHATAFELDTDGNPFDQDIYGREELRSPKLFYADHPFIFLVRDTQSGSLLFIGRLVRPKGDKMRDEL
 | binds | colligin/Hsp47 on the surface of murine Lewis Lung Carcinoma (LL/2) cells (protein, UniProt P19324 18-417, looked up) AEVKKPLEAAAPGTAEKLSSKATTLAERSTGLAFSLYQAMAKDQAVENILLSPLVVASSLGLVSLGGKATTASQAKAVLSAEKLRDEEVHTGLGELLRSLSNSTARNVTWKLGSRLYGPSSVSFADDFVRSSKQHYNCEHSKINFRDKRSALQSINEWASQTTDGKLPEVTKDVERTDGALLVNAMFFKPHWDEKFHHKMVDNRGFMVTRSYTVGVTMMHRTGLYNYYDDEKEKLQMVEMPLAHKLSSLIILMPHHVEPLERLEKLLTKEQLKAWMGKMQKKAVAISLPKGVVEVTHDLQKHLAGLGLTEAIDKNKADLSRMSGKKDLYLASVFHATAFEWDTEGNPFDQDIYGREELRSPKLFYADHPFIFLVRDNQSGSLLFIGRLVRPKGDKMRDEL

Reference: US7361730B1, “Surface localized colligin/Hsp47 in carcinoma cells” (University of Maryland, priority 1999, dated 2008)
